Binding data for one substance are collected here from paper PMC11446702.

Amino acid sequences for entries named in this document (tags omitted).
UniProt Q9Y2Y9: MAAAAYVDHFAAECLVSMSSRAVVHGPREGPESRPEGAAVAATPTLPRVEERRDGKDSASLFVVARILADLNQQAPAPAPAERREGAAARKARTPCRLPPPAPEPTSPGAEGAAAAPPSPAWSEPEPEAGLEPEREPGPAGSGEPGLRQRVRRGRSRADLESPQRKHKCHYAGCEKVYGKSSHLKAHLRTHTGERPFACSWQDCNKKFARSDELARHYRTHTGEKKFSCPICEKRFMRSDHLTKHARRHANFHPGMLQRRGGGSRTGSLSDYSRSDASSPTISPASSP
UniProt Q969H0: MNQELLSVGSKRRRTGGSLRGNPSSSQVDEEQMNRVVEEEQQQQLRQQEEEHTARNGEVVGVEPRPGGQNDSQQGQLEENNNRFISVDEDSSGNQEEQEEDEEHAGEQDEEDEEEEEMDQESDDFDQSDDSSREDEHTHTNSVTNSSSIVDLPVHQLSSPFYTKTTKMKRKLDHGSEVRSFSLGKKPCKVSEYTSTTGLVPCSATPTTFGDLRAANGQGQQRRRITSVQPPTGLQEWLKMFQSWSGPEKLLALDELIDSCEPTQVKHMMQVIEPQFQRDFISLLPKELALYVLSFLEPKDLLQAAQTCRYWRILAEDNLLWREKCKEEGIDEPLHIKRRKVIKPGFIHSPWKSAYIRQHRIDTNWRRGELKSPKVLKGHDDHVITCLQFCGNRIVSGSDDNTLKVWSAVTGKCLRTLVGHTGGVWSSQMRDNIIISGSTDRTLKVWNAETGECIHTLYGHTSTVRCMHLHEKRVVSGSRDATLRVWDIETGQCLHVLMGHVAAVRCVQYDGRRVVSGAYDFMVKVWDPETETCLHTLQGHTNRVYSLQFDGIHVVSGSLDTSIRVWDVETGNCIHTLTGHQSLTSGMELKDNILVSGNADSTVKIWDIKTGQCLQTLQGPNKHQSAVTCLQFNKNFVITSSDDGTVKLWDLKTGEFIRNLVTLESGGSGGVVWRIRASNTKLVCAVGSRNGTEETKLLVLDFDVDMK

Results are given in words; binding and its absence hold for the method and conditions named. In cells and extracts the contact can be indirect. Some binding calls cover weakened binding; strength is not graded here.

The target of the experiment is Krüppel-like factor 13 (KLF13) (human (endogenous in HEK293T)) (UniProt Q9Y2Y9). In words: co-IP; HEK293T cells treated with DEX 50 μM for 24 h; co-immunoprecipitation using KLF13 or FBXW7, immunoblot of indicated proteins.

In the case of “F-Box and WD repeat domain containing 7 (FBXW7) (from UniProt Q969H0 1-707)”, the binding result was “binds”.
